Laboratory results: the supplement of paper PMC10849652
The list shows a part of the results.

The chains behind the UniProt entries cited, without tags or fusion partners. Where a name states a change or a piece, a line headed by the entry shows the natural chain unless it says otherwise.
UniProt Q13530: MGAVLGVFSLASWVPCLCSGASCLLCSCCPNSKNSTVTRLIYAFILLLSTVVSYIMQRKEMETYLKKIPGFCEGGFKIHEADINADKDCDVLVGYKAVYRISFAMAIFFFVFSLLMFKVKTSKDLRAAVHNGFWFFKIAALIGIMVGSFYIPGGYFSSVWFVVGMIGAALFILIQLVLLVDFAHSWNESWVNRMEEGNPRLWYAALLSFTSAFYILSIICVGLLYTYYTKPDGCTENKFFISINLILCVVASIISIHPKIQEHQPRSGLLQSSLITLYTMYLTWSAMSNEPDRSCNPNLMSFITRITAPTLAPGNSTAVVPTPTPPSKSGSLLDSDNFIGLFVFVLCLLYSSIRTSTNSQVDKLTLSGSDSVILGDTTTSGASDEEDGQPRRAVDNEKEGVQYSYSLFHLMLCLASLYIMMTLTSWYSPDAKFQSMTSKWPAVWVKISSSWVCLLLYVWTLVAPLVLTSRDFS
UniProt P60468, whole entry, looked up: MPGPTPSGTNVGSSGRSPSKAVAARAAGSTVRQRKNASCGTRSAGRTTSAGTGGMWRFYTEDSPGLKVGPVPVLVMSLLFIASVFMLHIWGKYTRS
UniProt Q15459: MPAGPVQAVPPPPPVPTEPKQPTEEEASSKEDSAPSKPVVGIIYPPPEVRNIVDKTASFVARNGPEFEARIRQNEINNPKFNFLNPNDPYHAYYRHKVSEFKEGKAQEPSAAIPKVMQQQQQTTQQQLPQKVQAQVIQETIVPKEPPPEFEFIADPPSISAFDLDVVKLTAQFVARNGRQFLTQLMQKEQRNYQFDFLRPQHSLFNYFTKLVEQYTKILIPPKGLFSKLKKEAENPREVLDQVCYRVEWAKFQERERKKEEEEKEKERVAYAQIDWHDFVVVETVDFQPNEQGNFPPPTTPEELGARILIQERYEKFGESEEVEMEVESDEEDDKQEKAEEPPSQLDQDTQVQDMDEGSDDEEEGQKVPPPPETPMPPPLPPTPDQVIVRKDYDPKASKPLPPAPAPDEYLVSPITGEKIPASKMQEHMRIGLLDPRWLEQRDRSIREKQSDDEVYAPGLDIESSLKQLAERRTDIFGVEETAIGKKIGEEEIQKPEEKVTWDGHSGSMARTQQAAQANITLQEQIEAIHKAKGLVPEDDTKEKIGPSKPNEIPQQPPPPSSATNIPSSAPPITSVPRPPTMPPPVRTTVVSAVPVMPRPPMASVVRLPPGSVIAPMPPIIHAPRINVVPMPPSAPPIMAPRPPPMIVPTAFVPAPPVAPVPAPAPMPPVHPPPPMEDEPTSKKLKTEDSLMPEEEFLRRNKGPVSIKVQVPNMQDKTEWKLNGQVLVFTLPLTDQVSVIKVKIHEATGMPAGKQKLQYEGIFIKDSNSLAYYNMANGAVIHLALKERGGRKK
UniProt Q99720, whole entry, looked up: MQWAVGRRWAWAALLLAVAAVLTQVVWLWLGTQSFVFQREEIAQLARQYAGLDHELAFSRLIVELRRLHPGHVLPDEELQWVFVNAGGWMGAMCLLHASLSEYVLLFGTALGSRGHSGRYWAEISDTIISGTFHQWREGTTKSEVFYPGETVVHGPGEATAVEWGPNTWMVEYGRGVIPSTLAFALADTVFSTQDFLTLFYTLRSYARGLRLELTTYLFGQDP
UniProt P50452: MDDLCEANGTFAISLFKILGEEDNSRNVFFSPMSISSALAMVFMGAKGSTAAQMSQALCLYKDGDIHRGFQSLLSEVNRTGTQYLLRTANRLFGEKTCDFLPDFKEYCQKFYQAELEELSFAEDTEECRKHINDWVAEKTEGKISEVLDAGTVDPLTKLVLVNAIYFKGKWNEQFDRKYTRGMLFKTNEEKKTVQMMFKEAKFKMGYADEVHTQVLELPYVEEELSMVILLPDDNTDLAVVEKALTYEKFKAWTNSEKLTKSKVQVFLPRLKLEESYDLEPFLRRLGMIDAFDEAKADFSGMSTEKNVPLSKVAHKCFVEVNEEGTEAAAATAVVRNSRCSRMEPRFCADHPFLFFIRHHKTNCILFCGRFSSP
UniProt Q8NBJ9: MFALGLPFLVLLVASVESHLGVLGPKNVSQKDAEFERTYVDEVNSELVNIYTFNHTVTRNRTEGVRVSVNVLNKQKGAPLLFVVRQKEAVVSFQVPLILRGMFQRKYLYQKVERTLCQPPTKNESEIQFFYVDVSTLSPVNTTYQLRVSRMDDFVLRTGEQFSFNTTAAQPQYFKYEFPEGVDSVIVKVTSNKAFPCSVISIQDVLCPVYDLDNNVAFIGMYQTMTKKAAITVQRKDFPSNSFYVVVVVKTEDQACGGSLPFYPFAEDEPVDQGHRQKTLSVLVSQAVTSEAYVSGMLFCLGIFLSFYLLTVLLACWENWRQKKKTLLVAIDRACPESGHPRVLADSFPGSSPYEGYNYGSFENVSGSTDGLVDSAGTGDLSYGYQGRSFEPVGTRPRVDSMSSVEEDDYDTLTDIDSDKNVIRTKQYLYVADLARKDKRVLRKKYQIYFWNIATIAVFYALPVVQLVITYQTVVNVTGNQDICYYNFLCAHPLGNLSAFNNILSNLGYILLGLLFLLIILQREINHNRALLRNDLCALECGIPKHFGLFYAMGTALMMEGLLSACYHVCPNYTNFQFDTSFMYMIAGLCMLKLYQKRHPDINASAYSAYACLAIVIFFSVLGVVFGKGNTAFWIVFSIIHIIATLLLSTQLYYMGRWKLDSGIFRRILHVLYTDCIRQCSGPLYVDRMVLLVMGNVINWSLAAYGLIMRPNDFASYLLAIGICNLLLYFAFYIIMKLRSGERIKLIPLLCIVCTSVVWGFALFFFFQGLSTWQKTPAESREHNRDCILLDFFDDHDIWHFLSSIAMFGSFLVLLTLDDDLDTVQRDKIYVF
UniProt A1X283: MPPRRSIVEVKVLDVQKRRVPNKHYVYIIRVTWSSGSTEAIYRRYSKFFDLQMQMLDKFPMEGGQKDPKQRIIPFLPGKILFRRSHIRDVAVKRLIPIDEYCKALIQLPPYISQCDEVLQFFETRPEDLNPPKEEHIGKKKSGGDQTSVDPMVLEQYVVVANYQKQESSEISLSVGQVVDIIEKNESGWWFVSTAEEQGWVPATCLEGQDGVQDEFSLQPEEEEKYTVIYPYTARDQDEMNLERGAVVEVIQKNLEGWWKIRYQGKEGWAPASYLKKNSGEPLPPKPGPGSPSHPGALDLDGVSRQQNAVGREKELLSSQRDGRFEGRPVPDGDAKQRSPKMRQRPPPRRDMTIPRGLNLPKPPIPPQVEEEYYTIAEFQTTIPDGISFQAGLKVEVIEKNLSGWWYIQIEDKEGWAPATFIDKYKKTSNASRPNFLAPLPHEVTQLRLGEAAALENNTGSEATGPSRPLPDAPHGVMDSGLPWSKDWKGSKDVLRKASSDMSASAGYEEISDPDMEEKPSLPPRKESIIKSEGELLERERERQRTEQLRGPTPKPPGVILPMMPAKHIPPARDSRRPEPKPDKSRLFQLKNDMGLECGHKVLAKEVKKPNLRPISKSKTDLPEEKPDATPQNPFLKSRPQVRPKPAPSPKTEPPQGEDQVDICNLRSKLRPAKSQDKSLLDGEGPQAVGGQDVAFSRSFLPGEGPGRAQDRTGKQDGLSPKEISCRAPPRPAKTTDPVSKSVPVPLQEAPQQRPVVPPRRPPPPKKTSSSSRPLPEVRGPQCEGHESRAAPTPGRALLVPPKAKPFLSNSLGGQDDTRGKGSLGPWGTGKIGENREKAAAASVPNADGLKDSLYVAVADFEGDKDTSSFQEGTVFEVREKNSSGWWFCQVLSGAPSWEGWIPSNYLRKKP
UniProt Q86TU7: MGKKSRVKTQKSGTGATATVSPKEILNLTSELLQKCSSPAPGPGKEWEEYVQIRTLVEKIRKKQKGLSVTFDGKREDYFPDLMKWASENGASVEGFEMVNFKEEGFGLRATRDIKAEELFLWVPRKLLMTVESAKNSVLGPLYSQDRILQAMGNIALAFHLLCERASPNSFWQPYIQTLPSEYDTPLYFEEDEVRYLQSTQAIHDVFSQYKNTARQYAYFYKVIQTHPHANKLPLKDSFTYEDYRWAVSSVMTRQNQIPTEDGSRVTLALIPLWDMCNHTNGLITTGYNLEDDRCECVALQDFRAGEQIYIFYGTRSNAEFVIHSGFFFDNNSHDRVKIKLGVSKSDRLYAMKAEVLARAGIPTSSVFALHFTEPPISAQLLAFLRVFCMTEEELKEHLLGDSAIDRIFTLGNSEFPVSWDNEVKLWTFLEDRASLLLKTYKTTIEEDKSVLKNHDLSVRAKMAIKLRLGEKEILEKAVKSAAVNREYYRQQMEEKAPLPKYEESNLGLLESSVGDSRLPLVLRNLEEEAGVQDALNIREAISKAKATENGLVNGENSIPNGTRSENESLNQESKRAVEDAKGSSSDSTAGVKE
UniProt Q9BQE4, whole entry, looked up: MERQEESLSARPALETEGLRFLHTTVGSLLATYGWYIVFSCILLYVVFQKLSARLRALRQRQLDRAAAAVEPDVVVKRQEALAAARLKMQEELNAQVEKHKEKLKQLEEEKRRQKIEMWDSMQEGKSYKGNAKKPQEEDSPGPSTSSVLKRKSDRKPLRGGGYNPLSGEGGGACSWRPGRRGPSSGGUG
UniProt Q9Y3B4: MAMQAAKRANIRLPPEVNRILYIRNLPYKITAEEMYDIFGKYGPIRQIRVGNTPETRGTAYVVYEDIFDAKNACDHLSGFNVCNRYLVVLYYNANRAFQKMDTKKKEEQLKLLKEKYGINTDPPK
UniProt Q9H299: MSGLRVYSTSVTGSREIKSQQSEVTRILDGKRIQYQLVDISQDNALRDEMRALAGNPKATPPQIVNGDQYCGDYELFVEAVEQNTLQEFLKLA
UniProt P50453: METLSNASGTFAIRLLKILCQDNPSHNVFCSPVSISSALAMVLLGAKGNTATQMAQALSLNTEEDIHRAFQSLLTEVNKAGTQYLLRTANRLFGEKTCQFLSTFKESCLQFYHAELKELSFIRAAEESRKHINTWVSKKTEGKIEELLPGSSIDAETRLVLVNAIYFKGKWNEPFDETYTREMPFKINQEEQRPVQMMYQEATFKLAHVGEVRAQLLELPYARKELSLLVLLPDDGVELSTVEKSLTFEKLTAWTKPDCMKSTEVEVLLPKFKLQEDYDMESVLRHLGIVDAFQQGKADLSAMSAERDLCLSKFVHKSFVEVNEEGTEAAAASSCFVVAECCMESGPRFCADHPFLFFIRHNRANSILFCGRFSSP
UniProt O75326: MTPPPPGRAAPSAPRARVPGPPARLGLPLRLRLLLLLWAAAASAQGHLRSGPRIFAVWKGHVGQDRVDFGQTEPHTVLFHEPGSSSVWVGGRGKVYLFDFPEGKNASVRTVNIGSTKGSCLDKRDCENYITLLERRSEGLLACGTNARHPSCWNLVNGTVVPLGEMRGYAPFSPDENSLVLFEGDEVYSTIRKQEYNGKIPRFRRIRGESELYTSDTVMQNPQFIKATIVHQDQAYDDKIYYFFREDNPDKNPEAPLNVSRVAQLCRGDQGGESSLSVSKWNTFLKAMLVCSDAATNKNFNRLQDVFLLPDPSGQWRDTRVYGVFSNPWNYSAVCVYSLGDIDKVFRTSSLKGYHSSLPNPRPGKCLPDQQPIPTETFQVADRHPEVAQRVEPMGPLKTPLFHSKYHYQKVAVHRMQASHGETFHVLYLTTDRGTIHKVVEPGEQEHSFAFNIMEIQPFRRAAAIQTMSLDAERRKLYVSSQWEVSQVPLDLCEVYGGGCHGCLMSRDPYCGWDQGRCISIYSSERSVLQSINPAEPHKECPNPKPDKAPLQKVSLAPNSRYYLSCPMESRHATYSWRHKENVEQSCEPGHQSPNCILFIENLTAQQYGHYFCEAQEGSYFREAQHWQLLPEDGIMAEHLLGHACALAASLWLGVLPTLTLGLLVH
UniProt Q96T21: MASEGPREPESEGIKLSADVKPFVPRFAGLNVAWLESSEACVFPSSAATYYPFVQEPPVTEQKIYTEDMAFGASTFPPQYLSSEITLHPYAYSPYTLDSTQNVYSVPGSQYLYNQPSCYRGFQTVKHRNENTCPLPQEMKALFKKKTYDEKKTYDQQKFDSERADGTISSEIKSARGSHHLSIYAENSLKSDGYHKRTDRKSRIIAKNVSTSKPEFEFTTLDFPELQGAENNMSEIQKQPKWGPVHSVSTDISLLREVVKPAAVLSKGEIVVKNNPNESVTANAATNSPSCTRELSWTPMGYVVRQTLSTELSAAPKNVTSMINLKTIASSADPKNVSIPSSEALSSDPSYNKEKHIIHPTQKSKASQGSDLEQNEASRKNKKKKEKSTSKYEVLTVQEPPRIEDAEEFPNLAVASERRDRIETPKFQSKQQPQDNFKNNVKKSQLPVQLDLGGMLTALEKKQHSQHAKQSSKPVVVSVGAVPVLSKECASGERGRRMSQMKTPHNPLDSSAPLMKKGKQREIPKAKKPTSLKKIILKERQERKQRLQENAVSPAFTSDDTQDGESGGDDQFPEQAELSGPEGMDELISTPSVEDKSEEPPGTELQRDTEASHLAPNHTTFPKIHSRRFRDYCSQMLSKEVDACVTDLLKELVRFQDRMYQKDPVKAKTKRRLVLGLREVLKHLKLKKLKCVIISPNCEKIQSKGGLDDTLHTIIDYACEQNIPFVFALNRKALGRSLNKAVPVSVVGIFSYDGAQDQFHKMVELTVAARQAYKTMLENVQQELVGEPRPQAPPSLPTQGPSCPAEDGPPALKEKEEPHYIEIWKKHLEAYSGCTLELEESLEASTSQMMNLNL

Key:
Test in all cases: log2 fold change, soluble protein after heating vs DMSO (PISA); higher = thermal stabilisation; K562 cells, 10 uM, 30 min; active = over 0.2 and 3.5 SD of the protein, either way, in both replicates (recomputed)
[1] = compound: C1=CC=C(C=C1)[C@H](COC2=CC3=C(C=C2)NC(=O)N3)NC(=O)C4=CC=CN(C4=O)CC5=CC(=C(C=C5)F)F
Summary of the method: (§1)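 Quantification of soluble protein used TMTpro 16plex LC-MS/MS, with channel sums equalised. Samples were the supernatant after 21,000xg for 90 min of pooled aliquots from K562 cells (2×10^6 cells/mL) treated with 10 μM compound for 30 min, heated for 3 min over 48°C-58°C, and extracted in PBS with 0.5% NP-40 at 4°C. Values, from duplicates, describe thermal stability against control samples on a log2 fold-change scale.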

[2] = compound: CC1=C(SC2=C1C(=N[C@H](C3=NN=C(N32)C)CC(=O)N)C4=CC=C(C=C4)Cl)C
Summary of the method: as §1

[3] = compound: CC1=C2C(=CC=C1)N=C(N(C2=O)C3=CC=CC=C3C)CN4C=NC5=C(N=CN=C54)N
Summary of the method: as §1

[4] = compound: Cc1sc2c(c1C)C(c1ccc(Cl)cc1)=N[C@@H](CC(=O)OC(C)(C)C)c1nnc(C)n1-2
Summary of the method: as §1

[5] = compound: c1ccc([C@@H]2C[C@H]2NC2CCNCC2)cc1
Summary of the method: as §1

Measured: log2 fold change

SERINC3 (UniProt Q13530)
inactive: [1] -0.062 | [2] 0.045 | [3] 0.071 | [4] -0.062 | [5] 0.133

SFT2D2 (UniProt O95562)
inactive: [1] 0.047 | [2] 0.097 | [3] 0.116 | [4] -0.024 | [5] -0.002

SGMS1 (UniProt Q86VZ5)
inactive: [1] 0.017 | [2] -0.019 | [3] 0.007 | [4] -0.036 | [5] 0.033

SEC31A (UniProt O94979)
inactive: [1] -0.067 | [2] 0.034 | [3] 0.09 | [4] -0.03 | [5] -0.006

SH3BGRL2 (UniProt Q9UJC5)
inactive: [1] 0.071 | [2] 0.101 | [3] -0.004 | [4] -0.018 | [5] -0.129

SEPTIN8 (UniProt Q92599)
inactive: [1] 0.007 | [2] 0.028 | [3] 0.021 | [4] -0.007 | [5] 0.018

SEC61B (UniProt P60468)
inactive: [1] -0.021 | [2] -0.015 | [3] -0.032 | [4] 0.002 | [5] 0.075

SFT2D3 (UniProt Q587I9)
inactive: [1] -0.151 | [2] -0.068 | [3] -0.093 | [4] 0.004 | [5] 0.02

SFXN1 (UniProt Q9H9B4)
inactive: [1] -0.004 | [2] 0.075 | [3] 0.028 | [4] -0.056 | [5] -0.01

SF3B1 (UniProt O75533)
inactive: [1] -0.023 | [2] 0.015 | [3] 0.039 | [4] 0.043 | [5] 0.009

SFR1 isoform 2 (UniProt Q86XK3)
inactive: [1] 0.005 | [2] 0.113 | [3] 0.108 | [5] 0.056

SH3GLB2 (UniProt Q9NR46)
inactive: [1] -0.029 | [2] 0.064 | [3] 0.029 | [4] 0.004 | [5] -0.063

SEPTIN4 isoform 4 (UniProt O43236)
inactive: [1] -0.035 | [2] 0.086 | [3] -0.197 | [4] -0.104 | [5] -0.015

SENP6 (UniProt Q9GZR1)
inactive: [1] 0.023 | [2] 0.014 | [3] 0.048 | [4] 0.022 | [5] 0.056

SF3A1 (UniProt Q15459)
inactive: [1] -0.021 | [2] 0.006 | [3] 0.007 | [4] 0.011 | [5] 0.002

SIRT2 (UniProt Q8IXJ6)
inactive: [1] -0.075 | [2] 0.107 | [3] 0.105 | [4] 0.093 | [5] -0.016

SEPHS2 (UniProt Q99611)
inactive: [1] -0.014 | [2] 0.06 | [3] -0.049 | [4] -0.054 | [5] 0.05

SIGMAR1 (UniProt Q99720)
inactive: [1] -0.03 | [2] -0.011 | [3] 0.052 | [4] -0.013 | [5] 0.039

SERPINB6, A0A087X1N8
inactive: [1] 0.007 | [2] 0.006 | [3] -0.047 | [4] 0.011 | [5] 0.016

SERPINB8 (UniProt P50452)
inactive: [1] 0.02 | [2] -0.018 | [3] -0.104 | [4] 0.111 | [5] 0.1

SIAH2 (UniProt O43255)
inactive: [1] -0.066 | [2] 0.076 | [3] 0.008 | [5] 0.116

Looked up one by one from above (3):
SIGMAR1 (UniProt Q99720)
inactive: [1] -0.03 | [2] -0.011 | [3] 0.052 | [4] -0.013 | [5] 0.039

SEPHS2 (UniProt Q99611)
inactive: [1] -0.014 | [2] 0.06 | [3] -0.049 | [4] -0.054 | [5] 0.05

SERPINB6, A0A087X1N8
inactive: [1] 0.007 | [2] 0.006 | [3] -0.047 | [4] 0.011 | [5] 0.016

Later entries

SIDT2 isoform 2 (UniProt Q8NBJ9)
inactive: [1] -0.005 | [2] -0.005 | [3] 0.018 | [4] -0.115 | [5] 0.088

SIRT5 (UniProt Q9NXA8)
inactive: [1] -0.011 | [2] -0.021 | [3] 0.011 | [4] -0.051 | [5] -0.056

SH3PXD2B (UniProt A1X283)
inactive: [1] 0.07 | [2] 0.029 | [3] 0.001 | [4] -0.038 | [5] -0.046

SF3A2 (UniProt Q15428)
inactive: [1] -0.029 | [2] -0.018 | [3] 0.02 | [4] 0.017 | [5] 0.005

SEPTIN9 (UniProt Q9UHD8)
inactive: [1] 0.009 | [2] 0.041 | [3] 0.033 | [4] -0.008 | [5] 0.001

SETD3 (UniProt Q86TU7)
inactive: [1] -0.017 | [2] 0.018 | [3] 0.061 | [4] 0.021 | [5] -0.005

SEPTIN5 (UniProt G3XAH0)
inactive: [1] 0.002 | [2] -0.014 | [3] 0.061 | [4] -0.043 | [5] -0.031

SELENOS (UniProt Q9BQE4)
inactive: [1] 0.003 | [2] 0.052 | [3] 0.04 | [4] 0.014 | [5] 0.093

SIPA1 (UniProt Q96FS4)
inactive: [1] 0.072 | [2] 0.021 | [3] 0.053 | [4] 0.029 | [5] -0.026

SERPINB1 (UniProt P30740)
inactive: [1] 0.002 | [2] 0.081 | [3] 0.078 | [4] -0.011 | [5] -0.01

SF3B6 (UniProt Q9Y3B4)
inactive: [1] -0.024 | [2] -0.04 | [3] 0.098 | [4] 0.007 | [5] -0.027

SH3BGRL3 (UniProt Q9H299)
inactive: [1] 0.022 | [2] 0.102 | [3] 0.051 | [4] -0.077 | [5] -0.026

SEPTIN7 (UniProt Q16181)
inactive: [1] -0.038 | [2] 0.027 | [3] -0.027 | [4] -0.039 | [5] -0.011

SERPINB9 (UniProt P50453)
inactive: [1] 0 | [2] 0.014 | [3] 0.023 | [4] -0.037 | [5] -0.004

SERAC1 (UniProt Q96JX3)
inactive: [2] -0.197 | [5] 0.097

SEMA7A (UniProt O75326)
inactive: [3] -0.047

SECISBP2 (UniProt Q96T21)
inactive: [4] -0.181

SIK3 (UniProt H0Y4E8)
inactive: [2] 0.034 | [3] 0.025 | [4] 0.118 | [5] 0.028

SEMG2 (UniProt Q02383)
inactive: [1] 0.038 | [2] 0.063 | [4] -0.047 | [5] -0.066

SIX5 (UniProt Q8N196)
inactive: [1] 0 | [2] 0.004 | [5] -0.053
